Values of other authors in patent publication US8609835B2, “Polysaccharide composition and methods of isolation of the emulsion stabilizing cationic polyelectrolytic polysaccharide” (Trustees Of Tufts College, priority 2008, dated 2013).
Converted amounts (≈) assume the structure as drawn. Where two headings read alike, the source gives them in different places.

Conditions: free drug, reported, cited from earlier work

CC(=O)O[C@H]1C(=O)[C@@]2(C)[C@H]([C@H](OC(=O)c3ccccc3)[C@]3(O)C[C@H](OC(=O)[C@H](O)[C@@H](NC(=O)c4ccccc4)c4ccccc4)C(C)=C1C3(C)C)[C@]1(OC(C)=O)CO[C@@H]1C[C@@H]2O [paclitaxel]
aqueous solubility (listed as PTX): < 0.33 µg/mL
aqueous solubility (listed as free paclitaxel): 0.33 µg/mL (≈ 0.386 µM)
